Data as given in PubChem BioAssay AID1053208 (Peter MacCallum Cancer Centre, 2014).
Screen: 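Synthetic lethal interactions between gene loss and doxorubicin in osteosarcoma cells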 (primary screen). Cells: mouse osteosarcoma cells, early-passage culture from an engineered mouse model of fibroblastic bone tumour. Reagents: siRNA pool against mouse genes, 40 nM. Duration: about 120 h (48 h before drug, then 72 h with drug). Treatment: doxorubicin 100 nM for 72 h, roughly 30-40% inhibitory dose. Read-out: 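Luminescent ATP signal taken as viability with or without 100 nM doxorubicin for 72 h; mean of two wells set against non-targeting siRNA and turned into robust z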. Direction: viability z-score with doxorubicin and doxorubicin viability vs non-targeting: higher = more viable cells under doxorubicin; viability z-score without drug: higher = more viable cells with knock-down alone; z-score of drug to no-drug ratio: higher = less drug sensitisation by knock-down. Rule for the call: 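a pool counts as active when its viability z-score with doxorubicin is -2 or below and its z-score without drug lies between -2 and 2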.
Here is one part, drawn at random, of about 17,000 deposited reagents. 788 of all reagents (4.7%) count as active. 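Calls rest on z-score classes alone; an extra cut-off of viability at most 70% of control was not applied to them.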 A number with no mark means an inactive call. Reagents against one gene are numbered here. Reagent sequences are not shown.

gene knocked down | reagent | combined z-score class | viability z-score with doxorubicin | viability z-score without drug | z-score of drug to no-drug ratio | doxorubicin viability vs non-targeting
Nrgn (neurogranin) | 1 | high cell count with and without drug | 2.02 | 2.19 | 0.67 | 1.12
Hoxc6 (homeobox C6) | 1 | no change with or without drug | 0.11 | -0.51 | 0.56 | 0.95
Rtl6 (retrotransposon Gag like 6) | 1 | no change with or without drug | 0.11 | 0.67 | -0.22 | 0.95
AY358078 (cDNA sequence AY358078) | 1 | no change with or without drug | -0.67 | -0.67 | -0.11 | 0.88
Prph2 (peripherin 2) | 1 | no change with or without drug | -1.57 | -1.69 | -0.45 | 0.8
Clrn1 (clarin 1) | 1 | low cell count with doxorubicin only (active) | -3.6 | -1.18 | -3.15 | 0.62
Klhl12 (kelch-like 12) | 1 | no change with or without drug | -0.34 | 0.34 | -0.45 | 0.91
Or5d18 (olfactory receptor family 5 subfamily D member 18) | 1 | no change with or without drug | -0.56 | 0.51 | -0.79 | 0.89
Mst1 (macrophage stimulating 1 (hepatocyte growth factor-like)) | 1 | no change with or without drug | 0.56 | -0.51 | 1.12 | 0.99
Ggct (gamma-glutamyl cyclotransferase) | 1 | no change with or without drug | 1.35 | 1.85 | 0.22 | 1.06
Ppargc1b | 1 | no change with or without drug | 0.67 | 0.51 | 0.45 | 1
Tm2d3 (TM2 domain containing 3) | 1 | no change with or without drug | 0 | -0.84 | 0.67 | 0.94
Thbs3 (thrombospondin 3) | 1 | no change with or without drug | -1.12 | -1.01 | -0.45 | 0.84
Phb2 (prohibitin 2) | 1 | no change with or without drug | -1.57 | -1.85 | -0.34 | 0.8
Mepe | 1 | high cell count without drug only | 1.24 | 3.37 | -0.79 | 1.05
Rnf185 (ring finger protein 185) | 1 | high cell count with and without drug | 2.02 | 2.36 | 0.56 | 1.12
Ccnk (cyclin K) | 1 | no change with or without drug | -0.22 | -0.84 | 0.45 | 0.92
Slc15a3 | 1 | no change with or without drug | -1.8 | -0.84 | -1.24 | 0.78
Ccs (copper chaperone for superoxide dismutase) | 1 | no change with or without drug | -0.45 | 0.17 | -0.45 | 0.9
Srfbp1 (serum response factor binding protein 1) | 1 | no change with or without drug | -1.12 | -0.34 | -0.9 | 0.84
Chek1 (checkpoint kinase 1) | 1 | no change with or without drug | -0.67 | -1.52 | 0.45 | 0.88
Cmtm4 (CKLF-like MARVEL transmembrane domain containing 4) | 1 | no change with or without drug | -0.67 | -0.84 | 0 | 0.88
Trap1 (TNF receptor-associated protein 1) | 1 | no change with or without drug | -0.22 | -1.18 | 0.79 | 0.92
Msi2 (musashi RNA-binding protein 2) | 1 | no change with or without drug | 0.45 | -1.18 | 1.46 | 0.98
Xlr3c (X-linked lymphocyte-regulated 3C) | 1 | no change with or without drug | 0.56 | 0.51 | 0.34 | 0.99
Creb5 (cAMP responsive element binding protein 5) | 1 | no change with or without drug | 0.11 | -0.17 | 0.34 | 0.95
Creb5 (cAMP responsive element binding protein 5) | 2 | no change with or without drug | -0.67 | -0.17 | -0.45 | 0.88
Rabac1 (Rab acceptor 1 (prenylated)) | 1 | no change with or without drug | 0.34 | 0.34 | 0.22 | 0.97
Ube3b (ubiquitin protein ligase E3B) | 1 | no change with or without drug | -0.11 | -0.17 | 0.11 | 0.93
Atp7b (ATPase, copper transporting, beta polypeptide) | 1 | no change with or without drug | -0.34 | 1.18 | -1.01 | 0.91
Or5as1 (olfactory receptor family 5 subfamily AS member 1) | 1 | no change with or without drug | 1.01 | 1.01 | 0.45 | 1.03
Lims2 (LIM and senescent cell antigen like domains 2) | 1 | no change with or without drug | 1.57 | -0.17 | 1.91 | 1.08
Ifna4 (interferon alpha 4) | 1 | no change with or without drug | 0.22 | -0.67 | 0.79 | 0.96
1700052K11Rik (RIKEN cDNA 1700052K11 gene) | 1 | high cell count without drug only | 0 | 3.2 | -1.8 | 0.94
Pom121 (nuclear pore membrane protein 121) | 1 | no change with or without drug | -0.45 | 0 | -0.34 | 0.9
Gtf2h3 (general transcription factor IIH, polypeptide 3) | 1 | no change with or without drug | -1.01 | -0.17 | -0.9 | 0.85
Ca4 (carbonic anhydrase 4) | 1 | no change with or without drug | -1.69 | 0.34 | -1.91 | 0.79
Ift38 (intraflagellar transport 38) | 1 | no change with or without drug | 1.12 | 1.01 | 0.56 | 1.04
Steap3 (STEAP family member 3) | 1 | no change with or without drug | -1.12 | -1.01 | -0.45 | 0.84
Prodh2 (proline dehydrogenase (oxidase) 2) | 1 | no change with or without drug | 0.56 | -0.51 | 1.12 | 0.99
Hhex (hematopoietically expressed homeobox) | 1 | no change with or without drug | -0.45 | -0.67 | 0.11 | 0.9
Hexa (hexosaminidase A) | 1 | no change with or without drug | 0.11 | 0.67 | -0.22 | 0.95
Ccm2l (cerebral cavernous malformation 2-like) | 1 | no change with or without drug | 0.22 | -0.17 | 0.45 | 0.96
Fibp | 1 | no change with or without drug | 0.45 | 0.67 | 0.11 | 0.98
Smg8 (SMG8 nonsense mediated mRNA decay factor) | 1 | no change with or without drug | -1.01 | 0.17 | -1.01 | 0.85
Hdhd3 (haloacid dehalogenase-like hydrolase domain containing 3) | 1 | no change with or without drug | 0.22 | -0.17 | 0.45 | 0.96
Tle2 (transducin-like enhancer of split 2) | 1 | low cell count without drug only | -0.79 | -2.02 | 0.79 | 0.87
5430439G14RIK | 1 | no change with or without drug | -0.45 | 0 | -0.34 | 0.9
Vash2 (vasohibin 2) | 1 | no change with or without drug | 0.34 | 0.51 | 0.11 | 0.97
Irx2 (Iroquois homeobox 2) | 1 | no change with or without drug | -1.12 | -0.84 | -0.56 | 0.84
Hbp1 (high mobility group box transcription factor 1) | 1 | no change with or without drug | -0.67 | -0.84 | 0 | 0.88
Rbfox1 (RNA binding protein, fox-1 homolog (C. elegans) 1) | 1 | no change with or without drug | -0.34 | -1.18 | 0.56 | 0.91
Bbs5 (Bardet-Biedl syndrome 5) | 1 | no change with or without drug | 0.45 | 0.51 | 0.22 | 0.98
Ddx4 (DEAD box helicase 4) | 1 | no change with or without drug | -0.11 | -0.51 | 0.34 | 0.93
Rpp30 (ribonuclease P/MRP 30 subunit) | 1 | no change with or without drug | -0.45 | -0.51 | 0 | 0.9
Hdac9 (histone deacetylase 9) | 1 | no change with or without drug | 1.46 | -0.51 | 2.02 | 1.07
Kpna2 (karyopherin subunit alpha 2) | 1 | no change with or without drug | -0.9 | -1.01 | -0.11 | 0.86
Usb1 (U6 snRNA biogenesis 1) | 1 | no change with or without drug | -0.22 | -1.52 | 1.01 | 0.92
Tas2r119 (taste receptor, type 2, member 119) | 1 | no change with or without drug | 1.12 | -0.34 | 1.57 | 1.04
Zfa-ps (zinc finger protein, autosomal, pseudogene) | 1 | high cell count without drug only | 0.22 | 2.19 | -1.01 | 0.96
Mms22l (MMS22-like, DNA repair protein) | 1 | no change with or without drug | 1.12 | 1.35 | 0.34 | 1.04
Nr1i3 (nuclear receptor subfamily 1, group I, member 3) | 1 | no change with or without drug | 1.8 | 0.84 | 1.35 | 1.1
Foxf1 (forkhead box F1) | 1 | high cell count without drug only | 0.56 | 2.36 | -0.79 | 0.99
